Laboratory results reported in PubChem BioAssay AID1439 (NMMLSC, 2008).
The whole screen tested about 220,000 compounds, of which about 770 (0.35%) were called active. This list was built around the results that the source calls inconclusive (neither active nor inactive); the mix of calls is not that of the screen. Rule as the data show it: active = binding response below about 49% or above about 150%; inconclusive = no clear call, values can overlap the other calls; inactive = in between.

Amino acid sequences for entries named in this document (tags omitted).
UniProt P09471, whole entry, looked up: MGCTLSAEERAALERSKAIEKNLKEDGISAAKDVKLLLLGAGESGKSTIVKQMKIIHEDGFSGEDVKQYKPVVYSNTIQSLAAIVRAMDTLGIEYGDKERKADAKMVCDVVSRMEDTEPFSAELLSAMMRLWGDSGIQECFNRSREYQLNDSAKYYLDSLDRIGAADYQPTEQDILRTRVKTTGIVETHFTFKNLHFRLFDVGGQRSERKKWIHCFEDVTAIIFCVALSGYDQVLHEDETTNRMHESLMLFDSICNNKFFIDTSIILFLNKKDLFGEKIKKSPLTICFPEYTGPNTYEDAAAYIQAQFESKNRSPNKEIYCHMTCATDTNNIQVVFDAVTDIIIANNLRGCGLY

The compounds below were run against Guanine nucleotide-binding protein G(o) subunit alpha (Homo sapiens) (UniProt P09471) (assay: RGS7-Galphao binding modulators, primary screen, biochemical, multiplexed bead flow cytometry (AID 1439;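 also: fluorescent Galphao held in activated GDP-AlF4 state binding bead-coupled RGS7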)). Conditions: at 10 µM, actives lie on both sides.

| Compound | binding response (% of control) |
| --- | --- |
| O=C(CSC1=NCCS1)N1CCOCC1 | inactive: 100% |
| COc1ccc(-n2c3c(c(=O)[nH]c2=O)C(NC(C)=O)(C(F)(F)F)C(=O)N3)cc1 (configuration not stated) | inactive: 102% |
| COc1ccc(/C=C/C(=O)OC2CCCCC2CN(C)C)cc1 (configuration not stated) | inconclusive: 100% |
| COc1ccc(C=O)cc1COc1ccccc1F | inactive: 91.2% |
| O=C(Nc1cc(S(=O)(=O)Nc2ccc(Cl)cc2)ccc1O)c1ccc(S(=O)(=O)N2CCCCCC2)cc1 | inconclusive: 103% |
| CC(C)CNC(=O)N[C@@H](CC(C)C)C(=O)O | inconclusive: 103% |
| C/C(=N\N1CCN(Cc2ccc(Cl)cc2)CC1)c1ccc([N+](=O)[O-])cc1 | inconclusive: 99.1% |
| Cc1cc(C)n2nc(C(=O)Nc3cccc(S(=O)(=O)N4CCCC4)c3)nc2n1 | inconclusive: 88.9% |
| COC(=O)c1c(C)oc(C)c1S(=O)(=O)N1CCCCC1 | inconclusive: 39% |
| COCCCNC(=O)C1CCN(C(=O)c2cc3sccc3n2Cc2ccc(F)cc2)CC1 | inactive: 96.1% |
| COCCSc1ccccc1C(=O)Nc1cc(C)cc(C)c1 | inconclusive: 105% |
| C=CCC1(Cl)C(=O)C(Cl)=C(N2CCOCC2)C1(OC)OC (configuration not stated) | inconclusive: 102% |
| CC1=CC2=NC(=O)/C(=C/c3coc4ccccc4c3=O)C(=N)N2O1 | inconclusive: 254% |
| Cn1c(CNC(=O)c2ccco2)nnc1SCC(=O)c1ccccc1 | inactive: 98.7% |
| O=C(NCc1ccc2c(c1)OCO2)c1cc(=O)[nH]c2ccccc12 | inconclusive: 96.1% |
| CCCCC1C(C#N)=C(C)NC2=C1C(=O)CC(C)(C)C2 (configuration not stated) | inactive: 103% |
| CCSc1nnc(Nc2ccccc2)s1 | active: 24.8% |
| CC(C(=O)O)n1nnc2ccccc21 (configuration not stated) | inconclusive: 39.1% |
| O=C(O)CSCC(=O)NCc1c(Cl)cccc1Oc1ccccc1 | inconclusive: 121% |
| COc1ccc(/C(O)=C2\C(=O)C(=O)N(Cc3ccco3)C2c2ccc(OC)cc2OC)cc1 (configuration not stated) | inactive: 98.7% |
| CCOc1ccc(C(=O)NCC(c2cccs2)N(C)C)cc1 (configuration not stated) | inactive: 99.6% |
| Cn1ccnc1C(=O)C1CCCN(Cc2cn[nH]c2-c2ccc(-c3ccccc3)cc2)C1 (configuration not stated) | inconclusive: 89.5% |
| CC(C)(C)n1nnnc1SCC(=O)Nc1nn(-c2ccccc2)nc1C(N)=O | inactive: 97.5% |

| Compound | binding response (% of control) |
| --- | --- |
| COc1ccc(C2OC(=O)CC2C(=O)NCc2ccc(Cl)cc2)cc1OC (configuration not stated) | inactive: 94.8% |
| COc1ccc(C(=O)CSc2nnn(-c3cccc(NC(C)=O)c3)n2)cc1 | inconclusive: 117% |
| COc1cccc(C(=O)NN2C(=S)N(c3ccccc3)C(=O)C2CC(N)=O)c1 (configuration not stated) | inconclusive: 93.4% |
| Cc1cc(C)nc(NC(=S)Nc2cccc(F)c2)c1 | inconclusive: 51.4% |
| O=C(COc1ccccc1)Nn1c(-c2ccccc2)nc2ccccc2c1=O | inactive: 98.7% |
| CCN(CC)S(=O)(=O)c1ccc(/C=C/C(=O)Nc2ccccc2N2CCOCC2)cc1 | inconclusive: 231% |
| CCOCc1c(C(=O)NC2CCCCCC2)oc2ccccc12 | inconclusive: 104% |
| Cc1sc2ncn(CC(=O)Nc3ccccc3F)c(=O)c2c1-c1ccccc1 | inactive: 94.9% |
| CCOC(=O)C1(CC2CC2)CCN(C(=O)c2ocnc2C)CC1 | inactive: 101% |
| Cc1oc2ccc(OCc3ccc(Cl)cc3)cc2c1C(=O)O | inconclusive: 105% |
| COC(=O)c1c(SCc2cccc3ccccc23)nc(=O)[nH]c1C | inconclusive: 56.9% |
| Nc1c(N(CCO)C(=O)C2CCCCC2)c(=O)[nH]c(=O)n1Cc1ccccc1 | inconclusive: 166% |
| O=C1CN2NC(=S)N(c3ccc(Cl)cc3)C2=CN1c1ccc(Cl)cc1 | inconclusive: 101% |
| CC(C)(C)C(=O)O/N=C(\N)c1ccc([N+](=O)[O-])s1 | inconclusive: 104% |
| C=CCNC(=O)COc1ccccc1C#N | inconclusive: 103% |
| COc1ccc2c(c1OC)C[N+]1([O-])CCc3cc4c(cc3C1C2)OCO4 (configuration not stated) | inconclusive: 102% |
| Brc1ccc(N=Nc2ccc3ccccc3n2)cc1 | inconclusive: 97.1% |
| COCCn1cc(C(=O)c2cc(Br)ccc2O)cc(C#N)c1=O | inactive: 102% |
| OCCN1CCN(C(=S)Nc2cccc(C(F)(F)F)c2)CC1 | inconclusive: 116% |
| Cc1cc(Sc2nc(N)ncc2[N+](=O)[O-])ncn1 | inconclusive: 107% |
| Cc1noc(NS(=O)(=O)c2ccc(NC(=O)C(CC(C)C)N3C(=O)c4ccccc4C3=O)cc2)c1C (configuration not stated) | inconclusive: 83.3% |
| COc1ccc(C2=NN(C(=O)CSc3nnc(C)c(=O)n3N)C(c3ccco3)C2)cc1 (configuration not stated) | inconclusive: 121% |
| NC(=O)NC(=O)COC(=O)/C=C/c1cccs1 | inconclusive: 85.3% |

A draw from above in order of length of the SMILES, smallest number first:

| Compound | binding response (% of control) |
| --- | --- |
| C=CCNC(=O)COc1ccccc1C#N | inconclusive: 103% |
| Brc1ccc(N=Nc2ccc3ccccc3n2)cc1 | inconclusive: 97.1% |
| NC(=O)NC(=O)COC(=O)/C=C/c1cccs1 | inconclusive: 85.3% |
| Cc1cc(C)nc(NC(=S)Nc2cccc(F)c2)c1 | inconclusive: 51.4% |

Following part.

| Compound | binding response (% of control) |
| --- | --- |
| CCOc1c(O)ccc(C2NC(=O)N(C)C(C)=C2C(=O)OC)c1[N+](=O)[O-] (configuration not stated) | active: 436% [activator] |
| O=C(COc1cc(Cl)c(Cl)cc1Cl)Nc1ccc([N+](=O)[O-])cc1Cl | inconclusive: 407% |
| COc1ccc(N2C(=O)CCC(C(=O)O)C2c2ccccc2OC)cc1 (configuration not stated) | inconclusive: 86.4% |
| Cc1ccc(SC[C@H](Cc2ccccc2)N2CCN(CC(C)C)CCC2=O)cc1 | inconclusive: 99.5% |
| C/C(=N\NC(N)=S)c1ccc(-n2ccnc2)cc1 | inconclusive: 111% |
| Clc1nc(Cl)nc(-c2cn(-c3ccccc3)c3ccccc23)n1 | inconclusive: 141% |
| c1coc(CN2CNc3nc4ccccc4n3C2)c1 | inconclusive: 119% |
| CC(C)N(Cc1ccccc1)C(=O)COC(=O)/C=C/c1cnc2ccccc2n1 | inconclusive: 85.2% |
| Cc1[nH]c2ccccc2c1SCc1n[nH]c(=S)n1C | inconclusive: 110% |
| O=C(O)/C=C/C(=O)Nc1cc(F)ccc1F | inconclusive: -358% |
| COc1ccc2oc(C(=O)NC(C)(C)C)c(C)c2c1 | inconclusive: 87.8% |
| CCCCC(Sc1nc(N)c(NC(=O)c2ccc(OC)cc2)c(=O)[nH]1)C(=O)O (configuration not stated) | inconclusive: 108% |
| Cc1c(Cl)c(C(F)(F)F)nn1CC(=O)NCc1ccccc1 | inactive: 99.3% |
| O=C(c1nnsc1S(=O)(=O)c1ccc(Cl)cc1)N1CCOCC1 | inconclusive: 100% |
| CC(C)c1ccccc1NC(=O)CC1(CC(=O)O)CCCC1 | inconclusive: 13.5% |
| CCOC(=O)C1CCCN(C(=O)c2ccccc2SCCOC)C1 (configuration not stated) | inactive: 145% |
| FC(F)(F)c1ccc(C2[C@H]3CN(Cc4cccnc4)[C@H](c4ccccc4)C34CC2(c2cccnc2)C4)cc1 (some centres not stated) | inconclusive: 109% |
| Cn1c(=S)n(C)c2ccccc21 | inactive: 116% |
| COc1ccc(CNC(=O)c2cc(C)nn2-c2ccccc2)cc1 | inconclusive: 103% |
| O=C(CN1C(=O)CCC1=O)Nc1cccc2c1C(=O)NC2=O | inconclusive: 93.9% |
| CCOc1cccc(NC(=O)C2CC(=O)N(c3ccc(F)cc3)C2)c1 (configuration not stated) | inactive: 97.8% |
| CC(=O)c1c(C)[nH]c(=S)c(C#N)c1-c1ccc(Cl)cc1 | inconclusive: 86.2% |
| Cc1cc(-n2c(C)c3c(C)nnc(C)c3c2C)ccc1N | inconclusive: 851% |

As entered above:
In binding response (% of control), CCOCc1c(C(=O)NC2CCCCCC2)oc2ccccc12 is entered as inconclusive: 104%
In binding response (% of control), Brc1ccc(N=Nc2ccc3ccccc3n2)cc1 is entered as inconclusive: 97.1%
In binding response (% of control), Cc1[nH]c2ccccc2c1SCc1n[nH]c(=S)n1C is entered as inconclusive: 110%

(next part)

| Compound | binding response (% of control) |
| --- | --- |
| c1ccc(-c2nc(-c3ccccn3)nc(-c3ccccn3)n2)nc1 | inconclusive: 76.4% |
| Cc1ccc(C)c(N(Cc2cc3ccc(C)cc3[nH]c2=O)C(=O)c2ccco2)c1 | inconclusive: 132% |
| COc1ccc(NC(=O)CN(C)C2CCCCC2)cc1Cl | inconclusive: 121% |
| CC(=O)c1sc(NC(=O)c2ccc(Cl)cc2)nc1C | inconclusive: 110% |
| CCOc1ccc(C(C(=O)NC2CCCC2)N(CCCO)C(=O)c2ccc(-c3ccccc3)[nH]2)cc1 (configuration not stated) | inactive: 92.2% |
| CN(CCC1CCOCC1)Cc1cn[nH]c1-c1ccc(-c2ccccc2)cc1 | inactive: 93% |
| Cc1cc(C(F)F)n2ncc(C(=O)NCc3ccc(F)cc3)c2n1 | inconclusive: 89.7% |
| CC1(C)CC(=O)C(C=NCCN2CCN(C3CC(=O)N(c4ccc(Br)cc4)C3=O)CC2)=C(O)C1 (configuration not stated) | inactive: 108% |
| CN(C)c1ccc(/C=C/C(=O)c2cccc(Br)c2)cc1 | inactive: 108% |
| COc1ccccc1C(=O)COC(=O)CNS(=O)(=O)c1ccc(C)cc1 | inconclusive: 108% |
| O=C(c1cc(C(=O)N2CCOCC2)c2nc3ccccc3n2c1)c1cc(Cl)cc(Cl)c1O | inconclusive: 127% |
| C=CC(=O)NC1CC2CCC1(C)C2(C)C (configuration not stated) | inconclusive: 726% |
| O=C(NCc1ccco1)c1ccc2c(c1)CCO2 | inconclusive: -1.49% |
| CN(C)c1ccc(/C=C/C(=O)c2ccc(O)cc2)cc1[N+](=O)[O-] | inconclusive: 114% |
| COC(=O)CSc1nc(NC#N)nc(NC(C)(C)C)n1 | inconclusive: 54.9% |
| O=C(NCc1ccccn1)c1ccccc1-c1ccccc1 | inconclusive: 67.1% |
| COc1ccc(C2=NOC(COc3ccc([N+](=O)[O-])cc3)C2)cc1 (configuration not stated) | inconclusive: 90.7% |
| Cc1ccc(NC(=O)c2ccc3c(c2)[nH]c(=O)n3C(C)C)cc1 | inconclusive: 107% |
| COc1ccc(S(=O)(=O)N2CCC[C@H]2C(=O)NCc2ccc(Cl)cc2)cc1 | inconclusive: 359% |
| COc1ccc(CCNCc2ccc(OCc3ccc(Cl)nc3)c(OC)c2)cc1OC | inactive: 100% |
| Cn1ccc(=Nc2ccc(NC(=O)c3ccc(N=c4ccn(C)c5ccc([N+](=O)[O-])cc45)cc3)cc2)cc1 | inconclusive: 113% |
| CCN(CC)CCn1c(N)nc2ccccc21 | inconclusive: 124% |
| Cn1c(=O)n(Cc2ccccc2)c(=O)c2c1nc1n2CCS1 | inactive: 100% |
